Laboratory results from PMC8225760, “Residue 6.43 defines receptor function in class F GPCRs” (Nature Communications, 2021).
No constants are given. Whether binding was seen depends on the method and setting. Binding seen in cells or lysates may run through a third protein. Some entries that bind do so weakly or less than the wild type. Sequences can lack the tags named with a protein.

Molecular target: T1, SNAP-FZD6 (wild-type) (UniProt O60353)
T1 sequence: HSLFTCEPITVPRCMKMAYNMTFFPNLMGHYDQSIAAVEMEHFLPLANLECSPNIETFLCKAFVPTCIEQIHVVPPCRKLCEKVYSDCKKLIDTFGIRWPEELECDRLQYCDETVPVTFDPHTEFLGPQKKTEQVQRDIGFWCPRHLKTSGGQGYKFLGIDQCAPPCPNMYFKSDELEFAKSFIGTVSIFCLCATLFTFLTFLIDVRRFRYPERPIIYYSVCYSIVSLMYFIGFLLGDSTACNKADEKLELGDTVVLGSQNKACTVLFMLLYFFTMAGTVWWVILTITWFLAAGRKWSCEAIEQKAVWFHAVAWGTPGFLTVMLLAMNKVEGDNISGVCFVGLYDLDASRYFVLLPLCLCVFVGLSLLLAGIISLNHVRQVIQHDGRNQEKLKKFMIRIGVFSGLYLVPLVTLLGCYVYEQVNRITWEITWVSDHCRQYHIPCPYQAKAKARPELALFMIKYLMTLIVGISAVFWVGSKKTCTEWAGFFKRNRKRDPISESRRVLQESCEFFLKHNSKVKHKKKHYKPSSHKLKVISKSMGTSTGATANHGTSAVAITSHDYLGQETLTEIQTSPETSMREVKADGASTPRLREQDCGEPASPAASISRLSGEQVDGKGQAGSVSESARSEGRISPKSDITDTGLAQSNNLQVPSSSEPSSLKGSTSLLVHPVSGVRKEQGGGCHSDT
Test: FRET or BRET; bystander BRET between Nluc-DEP and Venus-KRas in living ΔFZD1-10 HEK293T cells with 0-480 ng SNAP-tagged receptor plasmid; BRET plotted over the SNAP surface signal; in the presence of C59

B1: Nluc-DEP (Nluc-tagged DEP domain of DVL2) (domain or fragment, UniProt O14641 433-507)
chain: PESGLEVRDRMWLKITIPNAFLGSDVVDWLYHHVEGFPERREARKYASGLLKAGLIRHTVNKITFSEQCYYVFGD
B1 was tested. Which binding did it give?
Its binding is “binds”.
